No constants are given. Whether binding was seen depends on the method and setting. In cells and extracts the contact can be indirect. Some binding calls cover weakened binding; strength is not graded here.
T1: S100 calcium-binding protein 16 (S100A16) (human (endogenous in HK-2)) (UniProt Q96FQ6)
T1 sequence: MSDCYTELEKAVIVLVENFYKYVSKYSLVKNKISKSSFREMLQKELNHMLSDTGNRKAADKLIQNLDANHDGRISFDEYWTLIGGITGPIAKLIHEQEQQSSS

Protein sequences, listed by entry. Tags and fused reporters are not part of them. Residues count along the entry.
UniProt P11021, residues 19-654: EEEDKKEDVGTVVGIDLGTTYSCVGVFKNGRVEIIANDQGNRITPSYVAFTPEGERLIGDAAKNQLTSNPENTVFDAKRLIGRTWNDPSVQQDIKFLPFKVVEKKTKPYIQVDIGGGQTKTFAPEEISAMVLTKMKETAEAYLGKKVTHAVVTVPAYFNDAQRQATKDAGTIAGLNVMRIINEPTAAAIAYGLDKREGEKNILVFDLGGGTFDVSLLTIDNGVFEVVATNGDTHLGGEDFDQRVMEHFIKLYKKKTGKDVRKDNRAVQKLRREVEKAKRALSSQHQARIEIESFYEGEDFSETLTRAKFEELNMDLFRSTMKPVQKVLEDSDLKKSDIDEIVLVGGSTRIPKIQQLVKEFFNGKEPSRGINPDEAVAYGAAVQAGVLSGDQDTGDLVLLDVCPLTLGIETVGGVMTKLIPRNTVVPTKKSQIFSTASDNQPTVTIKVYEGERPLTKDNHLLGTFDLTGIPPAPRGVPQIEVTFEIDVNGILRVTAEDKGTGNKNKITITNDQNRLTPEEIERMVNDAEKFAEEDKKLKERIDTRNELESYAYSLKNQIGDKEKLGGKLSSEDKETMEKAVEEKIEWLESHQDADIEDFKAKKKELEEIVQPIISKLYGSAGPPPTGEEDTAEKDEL

B1: S100 calcium-binding protein 16 (S100A16) (protein, UniProt Q96FQ6 1-103)
chain: T1 sequence
B2: S100A16 overexpressed from lentivirus (Lenti-S100A16) in HK-2 cells (protein, UniProt Q96FQ6 1-103)
chain: T1 sequence

How the values were obtained:
[1] = target: T1, S100 calcium-binding protein 16 (S100A16) (human (endogenous in HK-2)); test: co-IP; lysates (NP40 lysis buffer) of wild-type or S100A16-overexpressing HK-2 cells, 1 mg protein incubated with anti-S100A16 or anti-GRP78 overnight at 4 °C, protein A beads 2-6 h, three washes in NP40 lysis buffer, blots with anti-S100A16, anti-GRP78, anti-IRE1α; cells with or without 10 µM BAPTA-AM
[2] = target: Glucose-regulated protein 78 kD (GRP78) (human (endogenous in HK-2)) (UniProt P11021); test: as above

| Molecule | binding [1] | binding [2] |
| --- | --- | --- |
| Glucose-regulated protein 78 kD (GRP78) (from UniProt P11021 19-654) | binds |  |
| B1 |  | binds |
| B2 |  | binds |

— article PMC8514525
